One assay deals with T1, myc–PIAS3 (UniProt Q9Y6X2).
T1 sequence: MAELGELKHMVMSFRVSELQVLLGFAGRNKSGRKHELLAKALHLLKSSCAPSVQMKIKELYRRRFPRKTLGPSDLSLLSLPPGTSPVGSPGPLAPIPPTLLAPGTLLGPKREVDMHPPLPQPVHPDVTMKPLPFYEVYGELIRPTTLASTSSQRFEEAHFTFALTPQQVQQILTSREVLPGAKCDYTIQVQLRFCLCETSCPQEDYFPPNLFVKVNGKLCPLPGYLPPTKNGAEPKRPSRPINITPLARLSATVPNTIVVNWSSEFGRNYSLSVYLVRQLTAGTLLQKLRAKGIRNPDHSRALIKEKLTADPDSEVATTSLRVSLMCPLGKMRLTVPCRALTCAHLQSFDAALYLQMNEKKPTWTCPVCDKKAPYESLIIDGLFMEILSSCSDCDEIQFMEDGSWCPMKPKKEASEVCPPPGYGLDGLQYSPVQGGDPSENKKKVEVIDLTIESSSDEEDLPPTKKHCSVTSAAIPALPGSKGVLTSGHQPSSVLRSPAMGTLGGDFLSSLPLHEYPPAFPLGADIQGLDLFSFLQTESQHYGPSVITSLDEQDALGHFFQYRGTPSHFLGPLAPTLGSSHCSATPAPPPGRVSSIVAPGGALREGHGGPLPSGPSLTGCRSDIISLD
The experiment in a line: co-IP; myc–PIAS3 and FLAG–gephyrin (WT or phospho-site mutants) co-transfected in HEK293 cells; IP for myc–PIAS3, WB against FLAG; protein G agarose, washes in high-salt buffer and EBC buffer.

The target in a further assay is T2, FLAG–gephyrin (rat) (UniProt Q03555).
T2 sequence: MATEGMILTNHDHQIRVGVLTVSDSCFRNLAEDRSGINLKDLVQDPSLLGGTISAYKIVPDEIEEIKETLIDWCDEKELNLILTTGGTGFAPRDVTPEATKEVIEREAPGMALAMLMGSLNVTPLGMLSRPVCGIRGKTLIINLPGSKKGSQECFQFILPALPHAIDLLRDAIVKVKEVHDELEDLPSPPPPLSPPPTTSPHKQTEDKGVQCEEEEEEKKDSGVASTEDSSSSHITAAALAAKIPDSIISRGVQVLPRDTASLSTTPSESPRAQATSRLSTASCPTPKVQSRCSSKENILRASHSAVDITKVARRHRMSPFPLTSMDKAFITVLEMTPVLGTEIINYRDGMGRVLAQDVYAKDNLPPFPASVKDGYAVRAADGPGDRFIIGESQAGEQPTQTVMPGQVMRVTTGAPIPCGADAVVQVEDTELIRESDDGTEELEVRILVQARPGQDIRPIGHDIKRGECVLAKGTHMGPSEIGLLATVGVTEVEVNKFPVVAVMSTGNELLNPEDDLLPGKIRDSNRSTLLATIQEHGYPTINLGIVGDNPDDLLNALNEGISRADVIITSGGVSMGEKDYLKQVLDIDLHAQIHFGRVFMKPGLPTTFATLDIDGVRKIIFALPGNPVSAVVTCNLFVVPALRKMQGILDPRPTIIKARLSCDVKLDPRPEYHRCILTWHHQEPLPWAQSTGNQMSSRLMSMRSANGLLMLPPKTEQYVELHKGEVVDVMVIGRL
Briefly: co-IP; FLAG–gephyrin and myc–PIAS co-expressed in HEK293 cells; IP with anti-FLAG antibody, WB for myc; protein G agarose, washes in high-salt buffer and EBC buffer (50 mM Tris pH 8.0, 120 mM NaCl, 0.5% NP-40).

No constants are given. Whether binding was seen depends on the method and setting. In cells and extracts the contact can be indirect. Some results given as binding are weak or reduced against the parent protein; the word gives no strength. Sequences can lack the tags named with a protein.

B1: FLAG–gephyrin (protein, UniProt Q03555-6 1-736)
chain: MATEGMILTNHDHQIRVGVLTVSDSCFRNLAEDRSGINLKDLVQDPSLLGGTISAYKIVPDEIEEIKETLIDWCDEKELNLILTTGGTGFAPRDVTPEATKEVIEREAPGMALAMLMGSLNVTPLGMLSRPVCGIRGKTLIINLPGSKKGSQECFQFILPALPHAIDLLRDAIVKVKEVHDELEDLPSPPPPLSPPPTTSPHKQTEDKGVQCEEEEEEKKDSGVASTEDSSSSHITAAALAAKIPDSIISRGVQVLPRDTASLSTTPSESPRAQATSRLSTASCPTPKVQSRCSSKENILRASHSAVDITKVARRHRMSPFPLTSMDKAFITVLEMTPVLGTEIINYRDGMGRVLAQDVYAKDNLPPFPASVKDGYAVRAADGPGDRFIIGESQAGEQPTQTVMPGQVMRVTTGAPIPCGADAVVQVEDTELIRESDDGTEELEVRILVQARPGQDIRPIGHDIKRGECVLAKGTHMGPSEIGLLATVGVTEVEVNKFPVVAVMSTGNELLNPEDDLLPGKIRDSNRSTLLATIQEHGYPTINLGIVGDNPDDLLNALNEGISRADVIITSGGVSMGEKDYLKQVLDIDLHAQIHFGRVFMKPGLPTTFATLDIDGVRKIIFALPGNPVSAVVTCNLFVVPALRKMQGILDPRPTIIKARLSCDVKLDPRPEYHRCILTWHHQEPLPWAQSTGNQMSSRLMSMRSANGLLMLPPKTEQYVELHKGEVVDVMVIGRL
As for B1, in the assay with myc–PIAS3, the binding entry is “binds”.

B2: FLAG–S268A (protein, UniProt Q03555-6 1-736)
chain: MATEGMILTNHDHQIRVGVLTVSDSCFRNLAEDRSGINLKDLVQDPSLLGGTISAYKIVPDEIEEIKETLIDWCDEKELNLILTTGGTGFAPRDVTPEATKEVIEREAPGMALAMLMGSLNVTPLGMLSRPVCGIRGKTLIINLPGSKKGSQECFQFILPALPHAIDLLRDAIVKVKEVHDELEDLPSPPPPLSPPPTTSPHKQTEDKGVQCEEEEEEKKDSGVASTEDSSSSHITAAALAAKIPDSIISRGVQVLPRDTASLSTTPAESPRAQATSRLSTASCPTPKVQSRCSSKENILRASHSAVDITKVARRHRMSPFPLTSMDKAFITVLEMTPVLGTEIINYRDGMGRVLAQDVYAKDNLPPFPASVKDGYAVRAADGPGDRFIIGESQAGEQPTQTVMPGQVMRVTTGAPIPCGADAVVQVEDTELIRESDDGTEELEVRILVQARPGQDIRPIGHDIKRGECVLAKGTHMGPSEIGLLATVGVTEVEVNKFPVVAVMSTGNELLNPEDDLLPGKIRDSNRSTLLATIQEHGYPTINLGIVGDNPDDLLNALNEGISRADVIITSGGVSMGEKDYLKQVLDIDLHAQIHFGRVFMKPGLPTTFATLDIDGVRKIIFALPGNPVSAVVTCNLFVVPALRKMQGILDPRPTIIKARLSCDVKLDPRPEYHRCILTWHHQEPLPWAQSTGNQMSSRLMSMRSANGLLMLPPKTEQYVELHKGEVVDVMVIGRL
Consider B2, for which, in the assay with myc–PIAS3, the binding entry was “binds”.

B3: FLAG–S270E (protein, UniProt Q03555-6 1-736)
chain: MATEGMILTNHDHQIRVGVLTVSDSCFRNLAEDRSGINLKDLVQDPSLLGGTISAYKIVPDEIEEIKETLIDWCDEKELNLILTTGGTGFAPRDVTPEATKEVIEREAPGMALAMLMGSLNVTPLGMLSRPVCGIRGKTLIINLPGSKKGSQECFQFILPALPHAIDLLRDAIVKVKEVHDELEDLPSPPPPLSPPPTTSPHKQTEDKGVQCEEEEEEKKDSGVASTEDSSSSHITAAALAAKIPDSIISRGVQVLPRDTASLSTTPSEEPRAQATSRLSTASCPTPKVQSRCSSKENILRASHSAVDITKVARRHRMSPFPLTSMDKAFITVLEMTPVLGTEIINYRDGMGRVLAQDVYAKDNLPPFPASVKDGYAVRAADGPGDRFIIGESQAGEQPTQTVMPGQVMRVTTGAPIPCGADAVVQVEDTELIRESDDGTEELEVRILVQARPGQDIRPIGHDIKRGECVLAKGTHMGPSEIGLLATVGVTEVEVNKFPVVAVMSTGNELLNPEDDLLPGKIRDSNRSTLLATIQEHGYPTINLGIVGDNPDDLLNALNEGISRADVIITSGGVSMGEKDYLKQVLDIDLHAQIHFGRVFMKPGLPTTFATLDIDGVRKIIFALPGNPVSAVVTCNLFVVPALRKMQGILDPRPTIIKARLSCDVKLDPRPEYHRCILTWHHQEPLPWAQSTGNQMSSRLMSMRSANGLLMLPPKTEQYVELHKGEVVDVMVIGRL
Turning to B3, the binding result with myc–PIAS3 was “binds”.

B4: FLAG–S270A (protein, UniProt Q03555-6 1-736)
chain: MATEGMILTNHDHQIRVGVLTVSDSCFRNLAEDRSGINLKDLVQDPSLLGGTISAYKIVPDEIEEIKETLIDWCDEKELNLILTTGGTGFAPRDVTPEATKEVIEREAPGMALAMLMGSLNVTPLGMLSRPVCGIRGKTLIINLPGSKKGSQECFQFILPALPHAIDLLRDAIVKVKEVHDELEDLPSPPPPLSPPPTTSPHKQTEDKGVQCEEEEEEKKDSGVASTEDSSSSHITAAALAAKIPDSIISRGVQVLPRDTASLSTTPSEAPRAQATSRLSTASCPTPKVQSRCSSKENILRASHSAVDITKVARRHRMSPFPLTSMDKAFITVLEMTPVLGTEIINYRDGMGRVLAQDVYAKDNLPPFPASVKDGYAVRAADGPGDRFIIGESQAGEQPTQTVMPGQVMRVTTGAPIPCGADAVVQVEDTELIRESDDGTEELEVRILVQARPGQDIRPIGHDIKRGECVLAKGTHMGPSEIGLLATVGVTEVEVNKFPVVAVMSTGNELLNPEDDLLPGKIRDSNRSTLLATIQEHGYPTINLGIVGDNPDDLLNALNEGISRADVIITSGGVSMGEKDYLKQVLDIDLHAQIHFGRVFMKPGLPTTFATLDIDGVRKIIFALPGNPVSAVVTCNLFVVPALRKMQGILDPRPTIIKARLSCDVKLDPRPEYHRCILTWHHQEPLPWAQSTGNQMSSRLMSMRSANGLLMLPPKTEQYVELHKGEVVDVMVIGRL
As for B4, in the assay with myc–PIAS3, the binding entry is given as “binds”.

B5: myc–PIAS3 (protein, UniProt Q9Y6X2 1-628)
chain: MAELGELKHMVMSFRVSELQVLLGFAGRNKSGRKHELLAKALHLLKSSCAPSVQMKIKELYRRRFPRKTLGPSDLSLLSLPPGTSPVGSPGPLAPIPPTLLAPGTLLGPKREVDMHPPLPQPVHPDVTMKPLPFYEVYGELIRPTTLASTSSQRFEEAHFTFALTPQQVQQILTSREVLPGAKCDYTIQVQLRFCLCETSCPQEDYFPPNLFVKVNGKLCPLPGYLPPTKNGAEPKRPSRPINITPLARLSATVPNTIVVNWSSEFGRNYSLSVYLVRQLTAGTLLQKLRAKGIRNPDHSRALIKEKLTADPDSEVATTSLRVSLMCPLGKMRLTVPCRALTCAHLQSFDAALYLQMNEKKPTWTCPVCDKKAPYESLIIDGLFMEILSSCSDCDEIQFMEDGSWCPMKPKKEASEVCPPPGYGLDGLQYSPVQGGDPSENKKKVEVIDLTIESSSDEEDLPPTKKHCSVTSAAIPALPGSKGVLTSGHQPSSVLRSPAMGTLGGDFLSSLPLHEYPPAFPLGADIQGLDLFSFLQTESQHYGPSVITSLDEQDALGHFFQYRGTPSHFLGPLAPTLGSSHCSATPAPPPGRVSSIVAPGGALREGHGGPLPSGPSLTGCRSDIISLD
Turning to B5, in the assay with FLAG–gephyrin (rat), the binding result is recorded as “binds”.

The record behind these values is article PMC5103071.
